Laboratory results as given in PMC3009721.

Protein sequences, listed by entry. Tags and fused reporters are not part of them. Lines headed by an entry give the natural chain unless they say otherwise; changes in a name come on top.
UniProt Q9FXE4: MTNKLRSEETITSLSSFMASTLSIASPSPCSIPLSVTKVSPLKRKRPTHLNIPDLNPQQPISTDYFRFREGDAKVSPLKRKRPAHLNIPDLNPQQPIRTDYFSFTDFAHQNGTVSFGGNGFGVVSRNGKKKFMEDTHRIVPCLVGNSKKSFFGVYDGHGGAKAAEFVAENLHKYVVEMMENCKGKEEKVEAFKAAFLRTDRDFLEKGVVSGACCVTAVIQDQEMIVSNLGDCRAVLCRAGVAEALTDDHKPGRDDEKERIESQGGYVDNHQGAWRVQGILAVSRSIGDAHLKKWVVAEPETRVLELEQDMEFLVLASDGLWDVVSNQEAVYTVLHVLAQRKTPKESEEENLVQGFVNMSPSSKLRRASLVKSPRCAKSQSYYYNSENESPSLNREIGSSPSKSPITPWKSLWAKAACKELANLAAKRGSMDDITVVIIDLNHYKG
UniProt Q39024: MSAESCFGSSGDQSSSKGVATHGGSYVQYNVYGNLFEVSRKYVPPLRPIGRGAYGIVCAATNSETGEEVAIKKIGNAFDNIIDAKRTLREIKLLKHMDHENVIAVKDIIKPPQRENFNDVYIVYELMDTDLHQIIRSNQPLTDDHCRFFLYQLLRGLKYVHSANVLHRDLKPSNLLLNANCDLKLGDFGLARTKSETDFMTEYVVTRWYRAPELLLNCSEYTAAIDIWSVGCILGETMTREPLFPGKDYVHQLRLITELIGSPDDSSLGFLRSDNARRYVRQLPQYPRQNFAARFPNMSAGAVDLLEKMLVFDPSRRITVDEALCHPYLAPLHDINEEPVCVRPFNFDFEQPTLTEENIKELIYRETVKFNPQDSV
UniProt Q39026: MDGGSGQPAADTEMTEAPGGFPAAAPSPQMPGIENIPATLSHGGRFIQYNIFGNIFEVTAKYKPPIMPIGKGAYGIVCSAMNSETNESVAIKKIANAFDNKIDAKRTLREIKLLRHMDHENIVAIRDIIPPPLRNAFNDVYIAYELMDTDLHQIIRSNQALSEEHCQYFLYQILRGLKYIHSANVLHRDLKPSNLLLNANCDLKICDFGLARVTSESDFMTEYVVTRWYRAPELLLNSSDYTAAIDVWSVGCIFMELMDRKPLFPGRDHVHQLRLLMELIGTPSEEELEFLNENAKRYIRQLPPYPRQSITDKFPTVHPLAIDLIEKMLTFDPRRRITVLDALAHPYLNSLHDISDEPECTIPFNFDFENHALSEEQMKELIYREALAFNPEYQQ

Legend:
[1] = target: YFPntd-AP2C4 (Arabidopsis) (UniProt Q9FXE4); experiment: split reporter; split-YFP BiFC; YFPntd-PP2Cs co-transfected with YFPctd-MAPKs in Arabidopsis suspension culture protoplasts, reconstituted fluorescence detected by microscopy
[2] = target: AP2C4 in pBD-GAL4cam (Arabidopsis) (UniProt Q9FXE4); experiment: two-hybrid; pBD-GAL4cam-PP2C with pAD-MAPK vectors cotransformed in yeast strain PJ-69A (pJ694A in the legend); growth on selective plates
[3] = target: YFPntd-AP2C2 (Arabidopsis); experiment: split reporter; split-YFP BiFC; YFPntd-PP2Cs co-transfected with YFPctd-MAPKs in Arabidopsis suspension culture protoplasts, reconstituted fluorescence detected by microscopy

binding [1]	binding [2]	binding [3]	Molecule
no binding			YFPctd-MPK4 (from UniProt Q39024 1-376) (enzyme)
binds			YFPctd-MPK6 (from UniProt Q39026 1-395) (enzyme)
	binds		pAD-MPK6 (from UniProt Q39026 1-395) (enzyme)
binds		binds	YFPctd-MPK3 (enzyme, UniProt Q39023 1-370) MNTGGGQYTDFPAVETHGGQFISYDIFGSLFEITSKYRPPIIPIGRGAYGIVCSVLDTETNELVAMKKIANAFDNHMDAKRTLREIKLLRHLDHENIIAIRDVVPPPLRRQFSDVYISTELMDTDLHQIIRSNQSLSEEHCQYFLYQLLRGLKYIHSANIIHRDLKPSNLLLNANCDLKICDFGLARPTSENDFMTEYVVTRWYRAPELLLNSSDYTAAIDVWSVGCIFMELMNRKPLFPGKDHVHQMRLLTELLGTPTESDLGFTHNEDAKRYIRQLPNFPRQPLAKLFSHVNPMAIDLVDRMLTFDPNRRITVEQALNHQYLAKLHDPNDEPICQKPFSFEFEQQPLDEEQIKEMIYQEAIALNPTYG
	binds		pAD-MPK3 (enzyme, UniProt Q39023 1-370) MNTGGGQYTDFPAVETHGGQFISYDIFGSLFEITSKYRPPIIPIGRGAYGIVCSVLDTETNELVAMKKIANAFDNHMDAKRTLREIKLLRHLDHENIIAIRDVVPPPLRRQFSDVYISTELMDTDLHQIIRSNQSLSEEHCQYFLYQLLRGLKYIHSANIIHRDLKPSNLLLNANCDLKICDFGLARPTSENDFMTEYVVTRWYRAPELLLNSSDYTAAIDVWSVGCIFMELMNRKPLFPGKDHVHQMRLLTELLGTPTESDLGFTHNEDAKRYIRQLPNFPRQPLAKLFSHVNPMAIDLVDRMLTFDPNRRITVEQALNHQYLAKLHDPNDEPICQKPFSFEFEQQPLDEEQIKEMIYQEAIALNPTYG

These are yes or no findings as the source states them, for the method shown. Binding can be weak; no strength is given. For part of these data: In cells and extracts the contact can be indirect.
